Results: the supplement of paper PMC4604168 (melanoma cell lines)
The list shows a part of the results. Repeats are few or missing, and single values can be far off.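 Cells were imaged in 1,536-well plates, and nuclei stained with an antibody against cleaved PARP were counted against all DNA-stained nuclei to give the apoptosis fraction. Screening doses were chosen to leave most cells alive, and resting and induced cleaved-PARP levels differ strongly between cell lines.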

Key:
Assay in all cases: cleaved PARP positive nuclei fraction relative to DMSO control; melanoma cells; higher = more apoptosis
Settings in all cases: library dose: low library concentration; 72 h
WM115 = test system: WM115
WM1716 = test system: WM1716
WM1745 = test system: WM1745
WM3526 = test system: WM3526
WM3619 = test system: WM3619
WM451Lu = test system: WM451Lu

Row | SMILES | cleaved PARP positive nuclei fraction (WM115) | cleaved PARP positive nuclei fraction (WM1716) | cleaved PARP positive nuclei fraction (WM1745) | cleaved PARP positive nuclei fraction (WM3526) | cleaved PARP positive nuclei fraction (WM3619) | cleaved PARP positive nuclei fraction (WM451Lu)
1 | Cn1cnc2c(F)c(Nc3ccc(Br)cc3Cl)c(C(=O)NOCCO)cc21 [selumetinib] + NC(=O)c1ccc(N(C(N)=O)c2c(F)cccc2F)nc1-c1ccc(F)cc1F [VX702] (first compound 0.015 µM, partner dose 0.4 µM) | 229% | 122% | 115% | 126% | 103% | 191%
2 | C[C@]1(O)C[C@@H](c2nc(-c3ccc4ccc(-c5ccccc5)nc4c3)c3c(N)nccn32)C1 + Cc1nc(Nc2ncc(C(=O)Nc3c(C)cccc3Cl)s2)cc(N2CCN(CCO)CC2)n1 [dasatanib] (first compound 0.4 µM, partner dose 0.004 µM) | 18.9% | 330% | 201% | 49.8% | 107% | 99%
3 | NC1(c2ccc(-c3nc4ccn5c(=O)[nH]nc5c4cc3-c3ccccc3)cc2)CCC1 + Nc1ccn([C@@H]2O[C@H](CO)[C@@H](O)C2(F)F)c(=O)n1 [gemcitabine] (first compound 0.4 µM, partner dose 0.0004 µM) | 218% | 136% | 110% | 47.4% | 119% | 88%
4 | Cn1sc(=O)n(Cc2ccccc2)c1=O + CC1(C)NC(=O)N(c2ccc([N+](=O)[O-])c(C(F)(F)F)c2)C1=O [nilutamide] (first compound 0.4 µM, partner dose 1 µM) | 53.5% | 102% | 84.7% | 56.9% | 103% | 311%
5 | C[C@]1(O)C[C@@H](c2nc(-c3ccc4ccc(-c5ccccc5)nc4c3)c3c(N)nccn32)C1 + COc1ccc(-c2ccc3c(N4CCOCC4)nc(N4C[C@@H](C)O[C@@H](C)C4)nc3n2)cc1CO [KU0063794] (first compound 0.4 µM, partner dose 0.02 µM) | 138% | 48.6% | 109% | 106% | 94.7% | 98.6%
6 | COc1ccc(C2=N[C@@H](c3ccc(Cl)cc3)[C@@H](c3ccc(Cl)cc3)N2C(=O)N2CCNC(=O)C2)c(OC(C)C)c1 [Nutlin-3] + COc1ccc(Cl)c(Nc2nc3ccccc3nc2NS(=O)(=O)c2cccc(NC(=O)C(C)(C)N)c2)c1 [XL147] (first compound 0.1 µM, partner dose 0.8 µM) | 35.3% | 147% | 87.5% | 68.1% | 101% | 40%
7 | CC1(C)CCC(c2ccc(Cl)cc2)=C(CN2CCN(c3ccc(C(=O)NS(=O)(=O)c4ccc(N[C@H](CCN5CCOCC5)CSc5ccccc5)c(S(=O)(=O)C(F)(F)F)c4)cc3)CC2)C1 + Cn1cc(/C=C2\C(=O)Nc3cccnc32)c2ccccc21 [GW441756] (first compound 0.4 µM, partner dose 0.4 µM) | 185% | 72.6% | 493% | 55% | 165% | 88.9%
8 | CN(c1ncccc1CNc1nc(Nc2ccc3c(c2)CC(=O)N3)ncc1C(F)(F)F)S(C)(=O)=O + CCc1ccc(CCOc2ccc(CC3SC(=O)NC3=O)cc2)nc1 [pioglitazone] (first compound 0.08 µM, partner dose 2 µM) | 91.5% | 239% | 114% | 74.1% | 20.5% | 109%
9 | CCCCCCCCc1ccc(CCC(N)(CO)CO)cc1 [fingolimod] + Cc1cc(N2CCOCC2)cc2[nH]c(-c3c(NC[C@@H](O)c4cccc(Cl)c4)cc[nH]c3=O)nc12 [BMS536924] (first compound 2 µM, partner dose 0.2 µM) | 142% | 82% | 140% | 73.1% | 120% | 106%
10 | Cn1sc(=O)n(Cc2ccccc2)c1=O + CC(=O)c1c(C)c2cnc(Nc3ccc(N4CCNCC4)cn3)nc2n(C2CCCC2)c1=O [palbociclib] (first compound 0.4 µM, partner dose 0.04 µM) | 58.4% | 152% | 84% | 131% | 200% | 220%
11 | CC(=O)O[C@@]12CO[C@@H]1C[C@H](O)[C@@]1(C)C(=O)[C@H](O)C3=C(C)[C@@H](OC(=O)[C@H](O)[C@@H](NC(=O)OC(C)(C)C)c4ccccc4)C[C@@](O)([C@@H](OC(=O)c4ccccc4)[C@H]21)C3(C)C [Docetaxel] + CC(C)CCN1c2nc(Nc3cc(F)c(O)c(F)c3)ncc2N(C)C(=O)C1C [BID1870] (first compound 0.0001 µM, partner dose 0.2 µM) | 473% | 222% | 163% | 589% | 131% | 71.5%
12 | NC(=O)c1ccc(N(C(N)=O)c2c(F)cccc2F)nc1-c1ccc(F)cc1F + C=C(c1ccc(C(=O)O)cc1)c1cc2c(cc1C)C(C)(C)CCC2(C)C [Bexarotene] (first compound 0.4 µM, partner dose 2 µM) | 65% | 70.1% | 98.6% | 50% | 106% | 97.4%
13 | NC1(c2ccc(-c3nc4ccn5c(=O)[nH]nc5c4cc3-c3ccccc3)cc2)CCC1 + CNC(=O)c1cc(Oc2ccc(NC(=O)Nc3ccc(Cl)c(C(F)(F)F)c3)cc2)ccn1 [sorafenib] (first compound 0.4 µM, partner dose 0.4 µM) | 228% | 62.7% | 110% | 59% | 112% | 41.4%
14 | C[C@]1(O)C[C@@H](c2nc(-c3ccc4ccc(-c5ccccc5)nc4c3)c3c(N)nccn32)C1 + O=c1cc(-c2cccc3c2Sc2ccccc2S3)oc(N2CCOCC2)c1 [KU55933] (first compound 0.4 µM, partner dose 1 µM) | 81.9% | 43.1% | 95.1% | 84.6% | 97.8% | 108%
15 | NC(=O)c1ccc(N(C(N)=O)c2c(F)cccc2F)nc1-c1ccc(F)cc1F + COc1ccc(C2=N[C@@H](c3ccc(Cl)cc3)[C@@H](c3ccc(Cl)cc3)N2C(=O)N2CCNC(=O)C2)c(OC(C)C)c1 [Nutlin-3] (first compound 0.4 µM, partner dose 0.1 µM) | 105% | 76.8% | 104% | 43.9% | 86.3% | 92.1%
16 | CS(=O)(=O)c1ccc(C(=O)Nc2ccc(Cl)c(-c3ccccn3)c2)c(Cl)c1 [vismodegib] + COc1cc2c(Oc3ccc4[nH]c(C)cc4c3F)ncnc2cc1OCCCN1CCCC1 [cediranib] (first compound 1 µM, partner dose 0.4 µM) | 43.7% | 93.4% | 96.5% | 88.9% | 80.9% | 136%
17 | CC1(C)CCC(c2ccc(Cl)cc2)=C(CN2CCN(c3ccc(C(=O)NS(=O)(=O)c4ccc(N[C@H](CCN5CCOCC5)CSc5ccccc5)c(S(=O)(=O)C(F)(F)F)c4)cc3)CC2)C1 + Cc1nc(Nc2ncc(C(=O)Nc3c(C)cccc3Cl)s2)cc(N2CCN(CCO)CC2)n1 [dasatanib] (first compound 0.4 µM, partner dose 0.004 µM) | 384% | 69.8% | 2030% | 75.3% | 128% | 253%
18 | CC1(C)CCC(c2ccc(Cl)cc2)=C(CN2CCN(c3ccc(C(=O)NS(=O)(=O)c4ccc(N[C@H](CCN5CCOCC5)CSc5ccccc5)c(S(=O)(=O)C(F)(F)F)c4)cc3)CC2)C1 + CNC(=O)c1cc(Oc2ccc(NC(=O)Nc3ccc(Cl)c(C(F)(F)F)c3)cc2)ccn1 [sorafenib] (first compound 0.4 µM, partner dose 0.4 µM) | 266% | 172% | 392% | 30.2% | 96.8% | 76.3%
19 | C[C@@H](N)c1ccc(C(=O)Nc2ccnc3[nH]ccc23)cc1 + COc1ccc(Cl)c(Nc2nc3ccccc3nc2NS(=O)(=O)c2cccc(NC(=O)C(C)(C)N)c2)c1 [XL147] (first compound 0.4 µM, partner dose 0.8 µM) | 95.9% | 151% | 155% | 62.3% | 114% | 105%
20 | CN(c1ncccc1CNc1nc(Nc2ccc3c(c2)CC(=O)N3)ncc1C(F)(F)F)S(C)(=O)=O + N#Cc1c(O)c2c(-c3ccc(-c4ccccc4O)cc3)csc2[nH]c1=O [A769662] (first compound 0.08 µM, partner dose 2 µM) | 301% | 109% | 107% | 385% | 102% | 192%
21 | CCN(CC)CCNC(=O)c1c(C)[nH]c(/C=C2\C(=O)Nc3ccc(F)cc32)c1C [sunitinib] + O=C1NC(=O)/C(=C/c2ccc(-c3ccc(F)cc3O)o2)S1 [AS252424] (first compound 0.4 µM, partner dose 1 µM) | 76.7% | 73.2% | 395% | 337% | 77.3% | 237%
22 | COc1ccc(C2=N[C@@H](c3ccc(Cl)cc3)[C@@H](c3ccc(Cl)cc3)N2C(=O)N2CCNC(=O)C2)c(OC(C)C)c1 [Nutlin-3] + C[C@@H]1CCN(C(=O)CC#N)C[C@@H]1N(C)c1ncnc2[nH]ccc12 [CP690550] (first compound 0.1 µM, partner dose 1 µM) | 85% | 162% | 215% | 120% | 67.1% | 99.5%
23 | CC1(C)CCC(c2ccc(Cl)cc2)=C(CN2CCN(c3ccc(C(=O)NS(=O)(=O)c4ccc(N[C@H](CCN5CCOCC5)CSc5ccccc5)c(S(=O)(=O)C(F)(F)F)c4)cc3)CC2)C1 + Cc1ccc(NC(=O)c2cccc(N(C)C)c2)cc1NC(=O)c1ccc(O)cc1 [ZM336372] (first compound 0.4 µM, partner dose 2 µM) | 291% | 182% | 1160% | 65.1% | 195% | 43.4%
24 | COc1ccc(C2=N[C@@H](c3ccc(Cl)cc3)[C@@H](c3ccc(Cl)cc3)N2C(=O)N2CCNC(=O)C2)c(OC(C)C)c1 [Nutlin-3] + N#Cc1c(O)c2c(-c3ccc(-c4ccccc4O)cc3)csc2[nH]c1=O [A769662] (first compound 0.1 µM, partner dose 2 µM) | 146% | 85.5% | 96.8% | 70.3% | 70.5% | 138%

2 records picked at random from the list so far:
Row | SMILES | cleaved PARP positive nuclei fraction (WM115) | cleaved PARP positive nuclei fraction (WM1716) | cleaved PARP positive nuclei fraction (WM1745) | cleaved PARP positive nuclei fraction (WM3526) | cleaved PARP positive nuclei fraction (WM3619) | cleaved PARP positive nuclei fraction (WM451Lu)
5 | C[C@]1(O)C[C@@H](c2nc(-c3ccc4ccc(-c5ccccc5)nc4c3)c3c(N)nccn32)C1 + COc1ccc(-c2ccc3c(N4CCOCC4)nc(N4C[C@@H](C)O[C@@H](C)C4)nc3n2)cc1CO [KU0063794] (first compound 0.4 µM, partner dose 0.02 µM) | 138% | 48.6% | 109% | 106% | 94.7% | 98.6%
7 | CC1(C)CCC(c2ccc(Cl)cc2)=C(CN2CCN(c3ccc(C(=O)NS(=O)(=O)c4ccc(N[C@H](CCN5CCOCC5)CSc5ccccc5)c(S(=O)(=O)C(F)(F)F)c4)cc3)CC2)C1 + Cn1cc(/C=C2\C(=O)Nc3cccnc32)c2ccccc21 [GW441756] (first compound 0.4 µM, partner dose 0.4 µM) | 185% | 72.6% | 493% | 55% | 165% | 88.9%
